Patent US20250179471A1
No constants are given. Whether binding was seen depends on the method and setting. A result given as binding can be weak or reduced; the word gives no strength.

Biological target: ADAMTSL5
Assay: phage ELISA

B1: isecarosmab (1) VHH framework scaffold (parental) (VHH)
VHH: DVQLVESGGGVVQPGGSLRLSCAASGRTVSSYAMGWFRQAPGKEREFVAGISRSAERTYYVDSLKGRFTISRDNSKNTVYLQMNSLRPEDTALYYCAADLDPNRIFSREEYAYWGQGTLVTVSS
For B1, the binding was “binds”.
